In one data set the test system is caspase 3/7. The experiment in a line: Apo-one caspase 3/7 assay. In kind it is cell-based. The note with it: U87 cells, 12 hours, 200 nM. The text has this: FIG. 5A: Western blot analysis for Akt, P-Akt, cleaved PARP. […] Representative blot from two independent experiments is shown.
The subject of data set [1] is established and primary GBM lines, and breast and prostate cell lines. The data set is described as follows: Cell killing by free and liposomal STS. In kind it is cell-based. The note with it: range over GBM. On the procedure: The IC50 values ranged from 1-5 nM and were very close between free and liposomal STS.
Data set [2] can be described thus: Toxicity in mice: body weight and liver enzymes. Format: in vivo. The following applies: 0.8 mg/kg 3 times per week for two weeks. An excerpt: Weight declined with STS but not PBS or LSTS. Bottom panel is bar graph depicting liver enzymes ALT/AST before and after treatment. For free STS the post treatment levels were flagged as abnormal (stars). ALT/AST enzyme levels were normal with empty liposomes (control) and LSTS. Reference levels shown by dashed lines.

For orientation: IC50 means the concentration that inhibits the measured activity by half. A high value points to weaker potency. With `CN[C@@H]1C[C@H]2O[C@@](C)([C@@H]1OC)n1c3ccccc3c3c4c(c5c6ccccc6n2c5c31)C(=O)NC4` [STS, Staurosporine], the “caspase 3/7 activity” value in the data set on caspase 3/7 is “increased caspase 3/7 activity”. In data set [1], this compound had a half-inhibitory concentration (IC50) of 1 to 5 nM. Also, the AST/ALT liver enzymes entry in data set [2] is recorded as “elevated”.

Source of the values: patent US20250215015A1, “COMPOSITIONS OF STAUROSPORINE ANALOGS AND USES THEREOF” (THE REGENTS OF THE UNIVERSITY OF CALIFORNIA, priority 2022, published 2025).
